Reference: PubChem BioAssay AID720504 (National Center for Advancing Translational Sciences (NCATS), 2013)
Several values for one entry are separate records, joined by “and”; a condition that tells them apart may be missing. Identical values can stand only once. Among all 360,000 compounds or so, about 10,000 (2.8%) were called active. Inconclusive means that the source gave no clear call. Such entries were picked first, then a sample of the others. The call rests on the fitted dose curve; in most records, active means well fitted inhibition curve with a large enough effect; inconclusive means small, poorly fitted or top-dose-only effect; inactive means flat fitted curve, though single readings scatter. Potencies beside an inconclusive call are fits to weak or partial responses and may not hold up.

By UniProt entry, the sequences of proteins in these tests, tags left out.
UniProt P53350, whole entry, looked up: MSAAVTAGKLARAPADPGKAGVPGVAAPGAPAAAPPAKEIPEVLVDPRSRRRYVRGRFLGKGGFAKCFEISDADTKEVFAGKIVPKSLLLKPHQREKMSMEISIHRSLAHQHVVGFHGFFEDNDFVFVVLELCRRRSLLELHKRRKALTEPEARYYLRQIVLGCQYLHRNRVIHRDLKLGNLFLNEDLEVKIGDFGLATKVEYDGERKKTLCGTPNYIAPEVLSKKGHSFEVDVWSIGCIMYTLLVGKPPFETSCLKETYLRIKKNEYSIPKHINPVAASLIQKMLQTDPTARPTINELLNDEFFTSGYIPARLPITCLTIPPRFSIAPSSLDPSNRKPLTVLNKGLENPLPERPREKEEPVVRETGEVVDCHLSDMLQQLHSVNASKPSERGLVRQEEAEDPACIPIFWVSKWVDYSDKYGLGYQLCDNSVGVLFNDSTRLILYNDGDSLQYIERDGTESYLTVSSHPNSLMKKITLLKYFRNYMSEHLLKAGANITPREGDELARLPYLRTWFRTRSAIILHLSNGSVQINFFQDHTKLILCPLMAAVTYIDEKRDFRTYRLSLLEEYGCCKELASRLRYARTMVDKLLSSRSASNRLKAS

target: Serine/threonine-protein kinase PLK1 (Homo sapiens) (UniProt P53350); assay: qHTS for Inhibitors of PLK1-PDB (polo-like kinase 1 - polo-box domain): Primary Screen; conditions: Plk1 PBD binding of FITC phosphopeptide, fluorescence polarization; further: nearly all actives have a fitted effect of over 65% in size; on max response, negative = inhibition: series mostly up to about 57 µM
On the % scale 0 is the no-effect control and ±100 the full control effect; potency means the concentration at half of the fitted maximal effect.

| Structure (SMILES) | Potency | max response, negative = inhibition |
| --- | --- | --- |
| CCOC(=O)c1ccc(-n2c(CN3CCC(O)CC3)nc3ccc([N+](=O)[O-])cc3c2=O)cc1 | inconclusive: 18.9 µM [inhibitor, single point] | – |
| COc1cccc(N2CCN(C(=O)c3oc4ccccc4c3NC(=O)Cc3ccc(OC)c(OC)c3)CC2)c1 | – | inactive: -7.73% |
| CCCCn1c(N)c(N(CC(C)C)C(=O)CN2C(=O)c3ccccc3C2=O)c(=O)[nH]c1=O | – | inactive: 0.869% |
| Cc1ccccc1CSCC(=O)NCCSc1ccccn1 | inconclusive: 29.9 µM [inhibitor, single point] | – |
| Cc1cc(Br)ccc1N=C1NC(=O)CS1 | active: 26.7 µM | – |
| CCN1C[C@@H]2[C@@H]3C(=O)N(C)C(=O)[C@@H]3[C@](Cc3ccccc3)(C1=O)N2C(=O)c1ccc(Br)cc1 | – | inactive: 7.06% |
| Cc1nc(N2CCOCC2)nc(OC(C)C)c1[N+](=O)[O-] | inconclusive: 21.2 µM [inhibitor, partial curve] | – |
| C=CCn1c(SCC(=O)Nc2ccc(O)cc2)nc2sc(C)c(C)c2c1=O | inconclusive: 29.9 µM [inhibitor, single point] | – |
| CCOC(=O)c1c(NC(=O)C2CCCCC2C(=O)O)sc2c1CCCCC2 (centres undefined) | inconclusive: 29.9 µM [inhibitor, single point] | – |
| CCCCOc1ccc(C(=O)NCC(=O)OC2CCOC2=O)cc1 (centres undefined) | inconclusive: 26.7 µM [inhibitor, single point] | – |
| N/C(=C\C(=O)c1cc(Cl)ccc1O)C(Cl)(Cl)Cl | active: 6.7 µM | – |
| Cc1ccc(N/N=C/c2c(C)c(C#N)c(=O)n(C)c2O)cc1C | active: 23.8 µM | – |
| CCOC(=O)C1CCCN(C(=O)CCNS(=O)(=O)c2ccc3c(c2)CCC(=O)N3)C1 (centres undefined) | active: 16.8 µM | – |
| NS(=O)(=O)c1ccc(CCNC(=O)CSc2ccc(Cl)cc2Cl)cc1 | inconclusive: 21.2 µM [inhibitor, partial curve] | – |
| Cn1c(OCC2CCCO2)nc2cc(-c3ccccc3)sc2c1=O (centres undefined) | – | inactive: -10.8% |
| CCCCCCCCCCCCCCCC[N+](C)(C)Cc1ccc(F)cc1 | inconclusive: 37.7 µM [inhibitor, single point] | – |
| CC(=O)Oc1ccc(Cn2c(C)c(C(=O)NCc3cccc(C(F)(F)F)c3)sc2=O)cc1 | – | inactive: -4.39% |
| COc1cc(-c2[nH]ncc2CN(C)Cc2nonc2C)cc(OC)c1OC | – | inactive: -15.3% |
| CCOC(=O)CSc1nc2c(sc(=S)n2-c2ccccc2OC)c(=O)n1Cc1ccco1 | inconclusive: 21.2 µM [inhibitor, partial curve] | – |
| CCC(CO)Oc1cc(NCc2ccccc2C)c2ncn(C(C)C)c2c1 (centres undefined) | – | inactive: -7.62% |
| Cc1c(C(=O)NC(=S)Nc2ccccc2N2CCCC2)cccc1[N+](=O)[O-] | inconclusive: 21.2 µM [inhibitor, single point] | – |
| CC(C)CC(=O)Nc1ccc(Oc2ccc3c(c2)C(=O)NC3=O)cc1 | – | inactive: 2.51% |

| Structure (SMILES) | Potency | max response, negative = inhibition |
| --- | --- | --- |
| Cc1cc(C)n(CCc2nc(-c3cccs3)cs2)n1 | inconclusive: 26.7 µM [inhibitor, partial curve] | – |
| S=c1[nH]nc(-c2cc(-c3ccccc3)n[nH]2)n1/N=C/c1ccc(Br)s1 | – | inconclusive: -32.4% [inhibitor] |
| COc1ccc(-c2noc(CCCC(=O)NCc3ccco3)n2)cc1OC | inconclusive: 21.2 µM [inhibitor, single point] | – |
| O=C(NC(=S)N(CCCCO)C1CCCCC1)c1sc2ccccc2c1Cl | inconclusive: 21.2 µM [inhibitor, partial curve] | – |
| Fc1ccc(Oc2nccc(-c3ccc(Cl)cc3)n2)cc1 | – | inactive: 2.03% |
| CCOc1cc(/C=N/NC(=O)c2cc(C)n(-c3ccc(F)cc3)c2C)ccc1O | – | inactive: -3.13% |
| O=C1CC[C@H](O)CCN1[C@H](CSc1ccc(Br)cc1)Cc1ccccc1 | active: 11.9 µM | – |
| COCCn1c(SCC(=O)NC(=O)NCc2ccccc2)nc2ccccc21 | inconclusive: 29.9 µM [inhibitor, partial curve] | – |
| Cc1cccc(NC(=O)CSc2nc3ccc(N4C(=O)c5ccccc5C4=O)cc3s2)c1C | inconclusive: 42.3 µM [inhibitor, partial curve] and inconclusive: 67 µM [inhibitor, partial curve] | – |
| Cc1c(C(=O)O)cccc1-c1ccc(C=O)o1 | – | inactive: -2.23% |
| COc1ccc(S(=O)(=O)N(C)C[C@@H]2OCCCC[C@H](C)Oc3ccc(NC(=O)Nc4ccc(C(F)(F)F)cc4)cc3C(=O)N([C@H](C)CO)C[C@H]2C)cc1 | – | inactive: -19.3% |
| COc1ccc2[nH]c3c4c(ccc3c2c1)C(=O)C=CC4=O | inconclusive: 2.67 µM [inhibitor, full curve] | – |
| Cc1ccccc1N1C(S)=C(C#N)C(=O)NC1c1ccco1 (centres undefined) | inconclusive: 29.9 µM [inhibitor, single point] | – |
| O=S(=O)(c1ccc(NC(=S)NC23CC4CC(CC(C4)C2)C3)cc1)N1CCCCC1 | – | inactive: -8.8% |
| NC(CSC(c1ccccc1)(c1ccccc1)c1ccc2c(c1)OCO2)C(=O)O (centres undefined) | inconclusive: 26.7 µM [inhibitor, single point] | – |
| CCn1cc(C(=O)NCCCN2CCC(C)CC2)c(=O)c2cc(S(=O)(=O)N3CCOCC3)ccc21 | – | inconclusive: -4.4% [inhibitor] |
| O=C1CC(/C=C/c2ccc([N+](=O)[O-])cc2)=Nc2ccccc2N1 | inconclusive: 26.7 µM [inhibitor, partial curve] | – |
| CCc1ccccc1NC(=O)COc1ccc(C(=S)N2CCCC2)cc1 | inconclusive: 33.6 µM [inhibitor, single point] | – |
| Cc1ccc(NC2Nc3cc(C)nn3S2)c(C)c1 (centres undefined) | inconclusive: 23.8 µM [inhibitor, single point] | – |
| O=C(NNC(=O)c1nn(-c2ccc(F)cc2)ccc1=O)c1ccccc1Cl | – | inactive: -0.912% |
| CCC(CC)NC(=O)Nc1cccc(C)c1C | inconclusive: 8.44 µM [inhibitor, single point] | – |
| C1=C[C@H]2CCCN3CC[C@@H]([C@@H]2[C@]32CO2)[C@H]1CCOCc1ccccc1 | – | inactive: -2.86% |
